From patent US6632794B1, “Insulin-like growth factor agonist molecules” (Genentech, Inc., priority 1997, dated 2003)

Tested on: human Type II diabetics
Test: Treatment of human Type II diabetics with rhIGF-I, blood IGF-I, IGF-II, IGFBP-3
Type: in vivo
Conditions: 12 weeks

## IGF-I: native-sequence recombinant human insulin-like growth factor-I (Genentech)
40 and 80 μg/kg twice daily
  concentrations of IGF-I in the blood: the same total blood concentration of IGF-I was reached with these two doses
rhIGF-I twice daily
  concentrations of IGF-II in the blood: fell
  concentrations of IGFBP-3 in the blood: no statistically significant or clear pattern of change
